# Measured values published in article PMC8304497.
# By UniProt entry, the sequences of proteins in these tests, tags left out.
# UniProt P02088: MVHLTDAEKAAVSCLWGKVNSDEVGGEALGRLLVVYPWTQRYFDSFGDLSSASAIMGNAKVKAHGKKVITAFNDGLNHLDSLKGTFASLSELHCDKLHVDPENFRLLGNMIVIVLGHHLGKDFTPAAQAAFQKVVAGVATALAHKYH
# UniProt P01657: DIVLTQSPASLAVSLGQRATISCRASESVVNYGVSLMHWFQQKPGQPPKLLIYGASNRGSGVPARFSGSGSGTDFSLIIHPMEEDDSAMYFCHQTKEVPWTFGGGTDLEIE
# UniProt P14873: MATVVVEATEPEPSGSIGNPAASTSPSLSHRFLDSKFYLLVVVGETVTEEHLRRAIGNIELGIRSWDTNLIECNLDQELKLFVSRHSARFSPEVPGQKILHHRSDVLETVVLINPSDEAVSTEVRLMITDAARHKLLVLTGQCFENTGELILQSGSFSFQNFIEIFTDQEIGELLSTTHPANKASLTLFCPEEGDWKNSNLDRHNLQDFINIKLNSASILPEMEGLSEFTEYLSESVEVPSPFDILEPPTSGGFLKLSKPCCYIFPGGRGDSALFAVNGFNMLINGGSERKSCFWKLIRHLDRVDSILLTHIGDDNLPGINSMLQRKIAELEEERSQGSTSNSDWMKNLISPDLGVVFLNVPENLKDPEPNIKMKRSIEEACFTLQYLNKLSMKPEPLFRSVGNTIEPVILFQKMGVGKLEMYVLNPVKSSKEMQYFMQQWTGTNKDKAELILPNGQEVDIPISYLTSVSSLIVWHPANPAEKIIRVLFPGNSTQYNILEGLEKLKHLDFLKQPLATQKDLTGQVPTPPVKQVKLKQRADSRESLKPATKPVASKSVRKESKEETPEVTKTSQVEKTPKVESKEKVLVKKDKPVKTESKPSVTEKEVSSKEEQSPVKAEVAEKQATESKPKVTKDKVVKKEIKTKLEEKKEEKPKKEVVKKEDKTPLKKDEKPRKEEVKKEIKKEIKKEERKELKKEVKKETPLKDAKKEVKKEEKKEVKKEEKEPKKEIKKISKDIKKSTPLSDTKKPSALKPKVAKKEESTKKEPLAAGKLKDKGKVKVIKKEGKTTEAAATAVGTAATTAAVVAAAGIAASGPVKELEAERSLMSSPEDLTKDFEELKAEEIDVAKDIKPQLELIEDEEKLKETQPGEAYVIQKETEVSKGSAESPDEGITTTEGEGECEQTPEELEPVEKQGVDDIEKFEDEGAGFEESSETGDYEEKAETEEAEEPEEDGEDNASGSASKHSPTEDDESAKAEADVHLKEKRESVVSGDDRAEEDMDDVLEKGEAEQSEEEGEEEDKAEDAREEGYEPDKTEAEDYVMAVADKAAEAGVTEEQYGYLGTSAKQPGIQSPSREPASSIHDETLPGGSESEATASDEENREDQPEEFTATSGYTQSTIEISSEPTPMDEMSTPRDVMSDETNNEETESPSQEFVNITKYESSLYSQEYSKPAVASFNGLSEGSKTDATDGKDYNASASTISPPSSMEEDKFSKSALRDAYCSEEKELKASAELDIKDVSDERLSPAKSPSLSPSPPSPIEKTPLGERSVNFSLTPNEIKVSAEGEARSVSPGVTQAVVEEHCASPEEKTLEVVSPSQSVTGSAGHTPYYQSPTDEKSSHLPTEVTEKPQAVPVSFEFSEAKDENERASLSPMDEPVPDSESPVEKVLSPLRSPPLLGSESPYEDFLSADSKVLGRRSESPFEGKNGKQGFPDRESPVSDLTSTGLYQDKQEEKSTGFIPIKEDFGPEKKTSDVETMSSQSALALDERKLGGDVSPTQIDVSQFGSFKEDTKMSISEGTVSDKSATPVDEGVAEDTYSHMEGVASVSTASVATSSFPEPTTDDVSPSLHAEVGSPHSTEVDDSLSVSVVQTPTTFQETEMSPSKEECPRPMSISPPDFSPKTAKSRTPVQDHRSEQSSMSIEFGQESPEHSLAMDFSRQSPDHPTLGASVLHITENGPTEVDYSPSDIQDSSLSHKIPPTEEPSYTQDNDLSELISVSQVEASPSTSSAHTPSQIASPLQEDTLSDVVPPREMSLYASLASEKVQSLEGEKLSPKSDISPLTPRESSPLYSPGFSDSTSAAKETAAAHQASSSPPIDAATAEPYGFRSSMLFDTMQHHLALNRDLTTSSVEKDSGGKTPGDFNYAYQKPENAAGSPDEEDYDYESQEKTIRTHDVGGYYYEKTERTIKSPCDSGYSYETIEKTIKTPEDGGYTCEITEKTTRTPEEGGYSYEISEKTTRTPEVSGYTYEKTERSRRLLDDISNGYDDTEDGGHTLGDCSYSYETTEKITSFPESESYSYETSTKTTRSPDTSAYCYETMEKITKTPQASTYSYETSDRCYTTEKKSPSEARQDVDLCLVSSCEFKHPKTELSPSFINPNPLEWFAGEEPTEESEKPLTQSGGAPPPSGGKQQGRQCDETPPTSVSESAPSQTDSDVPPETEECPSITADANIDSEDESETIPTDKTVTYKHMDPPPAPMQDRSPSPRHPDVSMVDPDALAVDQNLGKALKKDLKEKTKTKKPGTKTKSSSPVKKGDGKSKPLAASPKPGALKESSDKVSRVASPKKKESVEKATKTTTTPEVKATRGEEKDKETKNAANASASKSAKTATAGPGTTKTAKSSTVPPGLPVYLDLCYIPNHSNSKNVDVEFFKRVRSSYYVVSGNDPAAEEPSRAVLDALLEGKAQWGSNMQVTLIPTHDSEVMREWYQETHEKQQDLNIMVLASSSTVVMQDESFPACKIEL
# UniProt Q6PHZ2: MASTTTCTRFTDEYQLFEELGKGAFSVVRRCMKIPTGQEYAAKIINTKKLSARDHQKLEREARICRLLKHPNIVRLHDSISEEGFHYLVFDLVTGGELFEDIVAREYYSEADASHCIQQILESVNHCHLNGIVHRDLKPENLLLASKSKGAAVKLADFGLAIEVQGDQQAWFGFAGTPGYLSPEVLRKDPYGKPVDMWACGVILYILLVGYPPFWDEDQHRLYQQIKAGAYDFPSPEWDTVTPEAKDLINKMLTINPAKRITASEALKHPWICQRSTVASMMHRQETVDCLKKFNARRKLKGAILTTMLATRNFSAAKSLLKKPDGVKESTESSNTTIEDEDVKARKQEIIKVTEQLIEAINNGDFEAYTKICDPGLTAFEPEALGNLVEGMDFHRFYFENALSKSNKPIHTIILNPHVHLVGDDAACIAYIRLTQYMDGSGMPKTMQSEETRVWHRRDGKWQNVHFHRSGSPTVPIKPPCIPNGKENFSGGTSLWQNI
# UniProt Q9CQZ1: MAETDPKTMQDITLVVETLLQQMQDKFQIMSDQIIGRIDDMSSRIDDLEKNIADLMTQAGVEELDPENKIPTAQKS
# UniProt Q922F4: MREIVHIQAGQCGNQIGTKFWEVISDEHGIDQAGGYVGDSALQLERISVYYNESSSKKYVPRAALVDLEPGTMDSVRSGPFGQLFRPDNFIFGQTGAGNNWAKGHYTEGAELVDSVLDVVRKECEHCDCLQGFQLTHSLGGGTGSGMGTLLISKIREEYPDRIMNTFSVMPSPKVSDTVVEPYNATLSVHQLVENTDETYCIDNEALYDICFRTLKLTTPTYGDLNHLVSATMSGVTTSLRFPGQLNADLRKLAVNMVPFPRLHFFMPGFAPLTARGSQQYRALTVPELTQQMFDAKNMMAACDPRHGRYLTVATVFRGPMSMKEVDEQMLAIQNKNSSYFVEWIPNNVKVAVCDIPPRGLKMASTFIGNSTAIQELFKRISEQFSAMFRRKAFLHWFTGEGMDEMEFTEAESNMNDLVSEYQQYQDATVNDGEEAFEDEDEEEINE
# UniProt O54962: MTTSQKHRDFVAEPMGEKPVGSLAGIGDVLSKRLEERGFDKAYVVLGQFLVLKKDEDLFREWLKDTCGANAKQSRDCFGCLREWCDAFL
# UniProt P28652: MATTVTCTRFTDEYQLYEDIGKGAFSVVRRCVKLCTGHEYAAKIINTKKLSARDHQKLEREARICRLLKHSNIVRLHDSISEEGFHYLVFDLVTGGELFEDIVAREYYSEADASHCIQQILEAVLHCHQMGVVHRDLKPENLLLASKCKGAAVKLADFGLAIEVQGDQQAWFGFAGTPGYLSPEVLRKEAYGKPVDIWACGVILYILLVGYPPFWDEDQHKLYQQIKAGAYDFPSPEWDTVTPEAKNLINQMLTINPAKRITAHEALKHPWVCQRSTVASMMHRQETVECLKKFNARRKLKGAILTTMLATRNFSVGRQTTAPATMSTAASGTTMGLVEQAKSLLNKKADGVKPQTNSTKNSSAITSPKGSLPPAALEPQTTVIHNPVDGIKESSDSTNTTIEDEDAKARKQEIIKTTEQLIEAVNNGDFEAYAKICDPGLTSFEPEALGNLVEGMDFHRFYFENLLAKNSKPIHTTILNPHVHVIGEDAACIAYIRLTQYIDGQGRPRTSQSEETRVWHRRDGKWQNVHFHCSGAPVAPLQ
# UniProt Q9D0R8: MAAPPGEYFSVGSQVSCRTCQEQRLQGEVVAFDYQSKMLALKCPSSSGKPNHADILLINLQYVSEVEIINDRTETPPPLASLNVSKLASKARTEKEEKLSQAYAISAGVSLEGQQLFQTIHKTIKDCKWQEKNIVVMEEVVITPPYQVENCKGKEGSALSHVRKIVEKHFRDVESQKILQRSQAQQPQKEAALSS
# UniProt P11798: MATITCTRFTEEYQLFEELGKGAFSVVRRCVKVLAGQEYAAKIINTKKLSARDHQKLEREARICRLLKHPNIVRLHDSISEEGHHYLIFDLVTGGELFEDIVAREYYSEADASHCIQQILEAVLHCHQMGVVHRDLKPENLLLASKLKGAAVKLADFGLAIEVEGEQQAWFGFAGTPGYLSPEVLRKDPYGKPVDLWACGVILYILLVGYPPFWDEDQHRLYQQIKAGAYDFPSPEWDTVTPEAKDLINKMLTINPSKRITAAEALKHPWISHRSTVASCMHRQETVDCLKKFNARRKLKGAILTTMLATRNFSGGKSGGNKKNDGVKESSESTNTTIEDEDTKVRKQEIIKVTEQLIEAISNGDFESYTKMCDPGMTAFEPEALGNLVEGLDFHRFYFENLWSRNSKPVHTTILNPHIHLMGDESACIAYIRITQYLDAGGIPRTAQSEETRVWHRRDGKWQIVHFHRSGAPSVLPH
# UniProt Q91WK2: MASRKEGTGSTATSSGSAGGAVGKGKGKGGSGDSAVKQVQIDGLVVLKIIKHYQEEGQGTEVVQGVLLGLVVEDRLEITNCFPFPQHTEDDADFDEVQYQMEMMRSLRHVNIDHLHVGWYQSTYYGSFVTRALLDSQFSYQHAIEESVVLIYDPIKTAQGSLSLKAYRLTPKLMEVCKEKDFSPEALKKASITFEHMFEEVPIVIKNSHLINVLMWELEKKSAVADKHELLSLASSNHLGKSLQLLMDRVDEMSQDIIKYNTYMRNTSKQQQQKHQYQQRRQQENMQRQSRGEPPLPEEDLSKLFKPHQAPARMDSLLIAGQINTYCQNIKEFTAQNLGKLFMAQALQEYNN
# UniProt P63168: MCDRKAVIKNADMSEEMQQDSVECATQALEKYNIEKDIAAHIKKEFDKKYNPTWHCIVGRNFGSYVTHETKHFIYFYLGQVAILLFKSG
# UniProt Q9DCH4: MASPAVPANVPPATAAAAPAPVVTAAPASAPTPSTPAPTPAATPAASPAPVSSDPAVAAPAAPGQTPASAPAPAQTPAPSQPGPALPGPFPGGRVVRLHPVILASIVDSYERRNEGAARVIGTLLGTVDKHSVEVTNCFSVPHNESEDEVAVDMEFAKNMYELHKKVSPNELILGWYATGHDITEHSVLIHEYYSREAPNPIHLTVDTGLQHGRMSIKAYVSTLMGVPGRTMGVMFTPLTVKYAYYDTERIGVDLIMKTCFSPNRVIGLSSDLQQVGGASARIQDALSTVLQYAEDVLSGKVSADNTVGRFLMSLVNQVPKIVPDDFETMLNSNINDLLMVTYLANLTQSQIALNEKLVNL
# UniProt P07356: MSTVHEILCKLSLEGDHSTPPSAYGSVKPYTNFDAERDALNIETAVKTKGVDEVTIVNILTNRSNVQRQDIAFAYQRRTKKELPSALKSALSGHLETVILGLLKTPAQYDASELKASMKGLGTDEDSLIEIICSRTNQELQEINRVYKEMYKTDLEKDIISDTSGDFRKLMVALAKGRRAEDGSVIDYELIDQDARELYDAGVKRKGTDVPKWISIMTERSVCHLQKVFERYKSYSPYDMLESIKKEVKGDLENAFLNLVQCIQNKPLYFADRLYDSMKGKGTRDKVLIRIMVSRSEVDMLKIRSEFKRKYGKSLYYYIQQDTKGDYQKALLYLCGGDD
# UniProt P62259: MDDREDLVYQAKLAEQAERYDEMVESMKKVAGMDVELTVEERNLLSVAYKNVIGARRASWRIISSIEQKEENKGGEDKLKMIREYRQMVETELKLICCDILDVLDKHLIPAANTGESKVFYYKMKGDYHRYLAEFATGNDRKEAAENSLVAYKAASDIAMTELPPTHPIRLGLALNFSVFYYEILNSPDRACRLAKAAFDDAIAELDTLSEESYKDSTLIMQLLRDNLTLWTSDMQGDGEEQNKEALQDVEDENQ
# UniProt P99027: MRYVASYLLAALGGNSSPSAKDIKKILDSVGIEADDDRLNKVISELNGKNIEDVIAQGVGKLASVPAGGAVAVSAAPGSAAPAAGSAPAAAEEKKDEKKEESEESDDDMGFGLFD
# T1: Neuronal cell adhesion molecule 2 (NCAM2) (mouse (endogenous in cerebral cortex)) (UniProt O35136)
# T1 sequence: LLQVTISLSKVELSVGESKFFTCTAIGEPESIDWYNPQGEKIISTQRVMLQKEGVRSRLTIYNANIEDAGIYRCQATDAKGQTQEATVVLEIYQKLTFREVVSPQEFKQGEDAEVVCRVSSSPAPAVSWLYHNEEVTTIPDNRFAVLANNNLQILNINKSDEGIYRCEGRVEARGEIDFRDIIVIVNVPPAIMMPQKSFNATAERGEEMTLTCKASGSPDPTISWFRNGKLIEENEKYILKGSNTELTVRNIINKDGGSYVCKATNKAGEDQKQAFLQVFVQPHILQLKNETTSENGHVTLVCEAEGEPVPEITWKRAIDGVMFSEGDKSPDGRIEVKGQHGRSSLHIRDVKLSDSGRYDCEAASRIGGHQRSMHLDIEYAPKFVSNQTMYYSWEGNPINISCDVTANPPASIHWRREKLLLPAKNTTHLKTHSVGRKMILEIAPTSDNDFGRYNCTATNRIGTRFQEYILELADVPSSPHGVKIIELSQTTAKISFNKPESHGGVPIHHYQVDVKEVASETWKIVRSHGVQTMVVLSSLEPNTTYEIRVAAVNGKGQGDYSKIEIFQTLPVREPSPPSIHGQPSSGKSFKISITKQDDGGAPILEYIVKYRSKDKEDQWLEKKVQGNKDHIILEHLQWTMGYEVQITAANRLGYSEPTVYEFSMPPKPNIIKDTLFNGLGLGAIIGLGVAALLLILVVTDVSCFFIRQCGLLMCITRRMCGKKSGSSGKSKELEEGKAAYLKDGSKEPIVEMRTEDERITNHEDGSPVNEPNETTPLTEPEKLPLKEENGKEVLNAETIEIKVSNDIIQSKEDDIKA
# Target: T1, Neuronal cell adhesion molecule 2 (NCAM2) (mouse (endogenous in cerebral cortex))
# Test: affinity purification with mass spectrometry; NCAM2 precipitated from the membrane fraction (lysis buffer with 1% Triton X-100, 150 mM NaCl) of postnatal mouse cortex with magnetic beads conjugated with anti-NCAM2.1 (EB06991) or anti-NCAM2 (AF778), o/n at 4 °C; urea elution, trypsin, LC-MS/MS, FDR ≤ 0.01%; control: non-conjugated beads
row,Molecule,binding
1,Hemoglobin beta-1 (from UniProt P02088 1-147),binds
2,F-actin-capping protein alpha-2 (from UniProt P47754 1-286),binds
3,Ig kappa chain V-III region PC 2413 (from UniProt P01657 1-111),binds
4,14-3-3 protein zeta/delta (from UniProt P63101 1-245),binds
5,FAST kinase domain-containing protein 2 (mouse (endogenous in cerebral cortex)),binds
6,Microtubule-associated protein 1B (from UniProt P14873 1-2464),binds
7,Calcium/calmodulin-dependent protein kinase type II delta (from UniProt Q6PHZ2 1-499) (enzyme),binds
8,Heat shock factor-binding protein 1 (from UniProt Q9CQZ1 1-76),binds
9,Tubulin beta-6 chain (from UniProt Q922F4 1-447),binds
10,Hippocalcin-like protein 1 (from UniProt P62748 1-193),binds
11,Barrier-to-autointegration factor (from UniProt O54962 1-89),binds
12,Tubulin beta-4A (from UniProt Q9D6F9 1-444),binds
13,Beta-actin-like protein 2 (from UniProt Q8BFZ3 1-376),binds
14,Calcium/calmodulin-dependent protein kinase type II beta (from UniProt P28652 1-542) (enzyme),binds
15,Protein LSM12 homolog (from UniProt Q9D0R8 1-195),binds
16,Calcium/calmodulin-dependent protein kinase type II alpha (from UniProt P11798 1-478) (enzyme),binds
17,Eukaryotic translation initiation factor 3 H (from UniProt Q91WK2 1-352),binds
18,F-actin-capping protein beta (from UniProt P47757 1-277),binds
19,"Dynein light chain 1, cytoplasmic (from UniProt P63168 1-89)",binds
20,EIF3F (from UniProt Q9DCH4 1-361),binds
21,Annexin A2 (from UniProt P07356 1-339),binds
22,Microtubule-associated protein 2 (from UniProt P20357 1-1828),binds
23,Tubulin alpha-1C (from UniProt P68373 1-449),binds
24,14-3-3 protein epsilon (from UniProt P62259 1-255),binds
25,Calcium/calmodulin-dependent protein kinase type II gamma (from UniProt Q923T9 1-529) (enzyme),binds
26,60S acidic ribosomal protein P2 (from UniProt P99027 1-115),binds
27,"Thioredoxin-dependent peroxide reductase (enzyme, UniProt P20108 63-257) TPAVTQHAPYFKGTAVVNGEFKELSLDDFKGKYLVLFFYPLDFTFVCPTEIVAFSDKANEFHDVNCEVVAVSVDSHFSHLAWINTPRKNGGLGHMNITLLSDITKQISRDYGVLLESAGIALRGLFIIDPNGVVKHLSVNDLPVGRSVEETLRLVKAFQFVETHGEVCPANWTPESPTIKPSPTASKEYFEKVHQ",binds

# Results are given in words; binding and its absence hold for the method and conditions named. Binding seen in cells or lysates may run through a third protein. Here binding means that the protein was enriched with, or labelled near, the bait; the list need not be complete.
